# Source: PubChem BioAssay AID720505 (Drosophila RNAi Screening Center, 2013)
# Aim: 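Genes needed for store-operated calcium entry in fly cells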 (primary screen)
# System: Drosophila S2R+ cells
# Knock-down reagent: long dsRNA against Drosophila genes
# Challenge: thapsigargin (2 µM) in calcium-free buffer to empty internal stores, then 2 mM calcium added back
# Detection: 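Fluo-4 signal in 384-well plates read on a FLIPR after thapsigargin (2 µM, calcium-free) store depletion and 2 mM calcium add-back; unnormalised mean endpoint per well; screen run twice, selected wells retested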
# Direction: calcium signal and retest calcium signal: higher = more calcium entry after store depletion
# Hit rule: 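Knock-downs counted as hits when calcium entry dropped relative to STIM1 positive and Rho1 negative controls present on each plate; roughly 1500 genes called, with reductions of differing size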
# Calls: active = called as lowering calcium entry; inactive = not called
# In all, the deposit lists about 20,000 reagents; shown is an unselected part of those with a known target gene and a result. Over the whole deposit, about 2,100 (10%) were called active. 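Raw plate signals without normalisation; calls rest on control-based scores that were not deposited; replicate 2 separates called from uncalled poorly.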 Entries without a mark were called inactive. The record does not give: the amount of reagent, the time to read-out.
gene knocked down,DRSC id,"calcium signal, replicate 1","calcium signal, replicate 2","retest calcium signal, replicate 1","retest calcium signal, replicate 2"
CG1275,DRSC08294,111,87.1,,
Tango6,DRSC02671,81.2,91.6,,
wb,DRSC01375,76.5,75,,
wb,DRSC03634,75.9 (active),106,,
wb,DRSC23003,97.3,100,,
CG13653,DRSC14653,284,182,,
ND5 (retired record),DRSC21281,68.7 (active),173,,
CG8773,DRSC16444,97.1,103,,
Ptpmeg,DRSC08684,123,110,,
CR10991,DRSC12156,107,177,,
cv-2,DRSC03861,96.8,6587,,
cv-2,DRSC04261,171,101,,
CG4751,DRSC02776,88.2,103,,
Dhx15,DRSC06036,220,82.8,,
CG42323,DRSC19629,89.3,112,,
CG42323,DRSC21397,204,113,,
Spt-I,DRSC06860,99.7,124,,
sc,DRSC18830,78.3,103,,
MED10,DRSC10474,75.5,136,,
Hrs,DRSC00549,96.1,163,,
Mekk1,DRSC16302,104,190,,
Mekk1,DRSC16303,213,171,,
CG8834,DRSC07283,101,189,,
Clp,DRSC00746,110,147,,
chk,DRSC04994,182,125,,
CG11694,DRSC14354,80.1,140,,
CG31998,DRSC17137,123,155,,
CG31998,DRSC17138,112,204,,
CG15431,DRSC00446,107,123,,
CG5404,DRSC15793,93.2,108,67.7,94
CG7970,DRSC08605,197,110,,
CG10866,DRSC08171,114,90.2,,
CG15629,DRSC00464,196,112,,
CG13403,DRSC19535,94.6,111,,
